Results from paper PMC11956250.
Results are given in words; binding and its absence hold for the method and conditions named. Binding seen in cells or lysates may run through a third protein. Some entries that bind do so weakly or less than the wild type.

Amino acid sequences for entries named in this document (tags omitted).
UniProt P43490: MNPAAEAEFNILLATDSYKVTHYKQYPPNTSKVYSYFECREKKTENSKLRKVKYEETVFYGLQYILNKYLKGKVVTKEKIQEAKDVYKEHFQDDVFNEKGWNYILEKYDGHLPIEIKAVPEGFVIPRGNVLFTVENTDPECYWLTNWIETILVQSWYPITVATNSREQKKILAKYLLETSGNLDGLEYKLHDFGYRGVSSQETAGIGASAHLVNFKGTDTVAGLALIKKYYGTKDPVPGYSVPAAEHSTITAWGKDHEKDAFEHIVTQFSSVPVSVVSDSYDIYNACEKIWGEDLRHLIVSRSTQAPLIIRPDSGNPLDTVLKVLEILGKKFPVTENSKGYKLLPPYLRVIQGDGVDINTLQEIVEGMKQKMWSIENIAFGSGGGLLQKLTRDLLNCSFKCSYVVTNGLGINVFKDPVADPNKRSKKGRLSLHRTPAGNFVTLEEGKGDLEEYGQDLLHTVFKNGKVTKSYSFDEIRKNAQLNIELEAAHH
UniProt P46934: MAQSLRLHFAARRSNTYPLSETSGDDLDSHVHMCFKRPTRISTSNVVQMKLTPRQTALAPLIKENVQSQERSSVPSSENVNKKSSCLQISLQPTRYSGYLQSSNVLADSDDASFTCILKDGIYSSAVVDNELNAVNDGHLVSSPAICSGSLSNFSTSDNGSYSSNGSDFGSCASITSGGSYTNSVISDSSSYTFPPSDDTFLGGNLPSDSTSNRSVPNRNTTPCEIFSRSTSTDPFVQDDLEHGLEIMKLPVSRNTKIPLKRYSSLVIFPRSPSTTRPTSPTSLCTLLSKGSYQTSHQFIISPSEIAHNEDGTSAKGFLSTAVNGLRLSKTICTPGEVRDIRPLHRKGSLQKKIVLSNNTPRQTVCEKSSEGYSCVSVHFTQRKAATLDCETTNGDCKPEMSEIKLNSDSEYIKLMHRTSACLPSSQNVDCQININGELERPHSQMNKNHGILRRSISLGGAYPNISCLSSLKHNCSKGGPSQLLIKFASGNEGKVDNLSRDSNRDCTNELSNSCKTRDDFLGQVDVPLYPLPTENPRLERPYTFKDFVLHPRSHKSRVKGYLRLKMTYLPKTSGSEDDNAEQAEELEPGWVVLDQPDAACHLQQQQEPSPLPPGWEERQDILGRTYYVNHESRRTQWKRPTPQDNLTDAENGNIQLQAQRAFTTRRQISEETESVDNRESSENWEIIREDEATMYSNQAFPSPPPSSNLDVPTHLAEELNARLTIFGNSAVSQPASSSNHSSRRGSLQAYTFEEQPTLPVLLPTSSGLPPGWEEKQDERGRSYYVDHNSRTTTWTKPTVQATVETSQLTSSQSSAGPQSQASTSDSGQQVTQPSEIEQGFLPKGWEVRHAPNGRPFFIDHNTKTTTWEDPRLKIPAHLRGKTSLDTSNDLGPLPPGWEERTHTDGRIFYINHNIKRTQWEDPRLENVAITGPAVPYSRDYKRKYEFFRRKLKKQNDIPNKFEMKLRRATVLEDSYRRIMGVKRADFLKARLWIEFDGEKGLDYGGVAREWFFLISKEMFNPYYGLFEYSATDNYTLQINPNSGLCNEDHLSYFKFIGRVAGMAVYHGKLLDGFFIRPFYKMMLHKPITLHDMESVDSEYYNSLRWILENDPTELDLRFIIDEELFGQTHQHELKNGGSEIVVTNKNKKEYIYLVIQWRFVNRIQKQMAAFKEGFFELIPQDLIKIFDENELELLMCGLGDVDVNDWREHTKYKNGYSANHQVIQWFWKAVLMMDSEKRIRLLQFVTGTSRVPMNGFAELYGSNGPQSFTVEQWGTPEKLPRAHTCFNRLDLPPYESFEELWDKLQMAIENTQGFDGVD

Legend:
[1] = target: His-tagged human NAMPT (human) (UniProt P43490); assay: co-IP; HEK293T cells co-transfected for 24 h with His-NAMPT and HA-NEDD4; cleared RIPA lysates incubated with His-tag magnetic bead conjugate at 4 °C; immunoblot
[2] = target: NEDD4 E3 ligase (neural precursor cell expressed developmentally downregulated 4) (human (endogenous in THP-1)) (UniProt P46934); assay: co-IP; NEDD4 antibody and protein G Dynabeads, cleared RIPA lysates of WT THP-1 cells, basal and after LPS; immunoblot for GSDMD and Hsp90

| binding [2] | Molecule | binding [1] |
| --- | --- | --- |
| – | HA-tagged human NEDD4 (from UniProt P46934 1-1319) (enzyme) | binds |
| binds | Gasdermin D (GSDMD), intact (protein, UniProt P57764 1-484) MGSAFERVVRRVVQELDHGGEFIPVTSLQSSTGFQPYCLVVRKPSSSWFWKPRYKCVNLSIKDILEPDAAEPDVQRGRSFHFYDAMDGQIQGSVELAAPGQAKIAGGAAVSDSSSTSMNVYSLSVDPNTWQTLLHERHLRQPEHKVLQQLRSRGDNVYVVTEVLQTQKEVEVTRTHKREGSGRFSLPGATCLQGEGQGHLSQKKTVTIPSGSTLAFRVAQLVIDSDLDVLLFPDKKQRTFQPPATGHKRSTSEGAWPQLPSGLSMMRCLHNFLTDGVPAEGAFTEDFQGLRAEVETISKELELLDRELCQLLLEGLEGVLRDQLALRALEEALEQGQSLGPVEPLDGPAGAVLECLVLSSGMLVPELAIPVVYLLGALTMLSETQHKLLAEALESQTLLGPLELVGSLLEQSAPWQERSTMSLPPGLLGNSWGEGAPAWVLLDECGLELGEDTPHVCWEPQAQGRMCALYASLALLSGLSQEPH | – |
